{"source": "patent US20230382944A1", "about": "“NOVEL COCRYSTALS OF DEXAMETHASONE” (Versitech Limited, priority 2022, published 2023)", "origin": "cited, not measured here", "details": "water, 25° C.; cited from earlier work", "data": [{"smiles": "C[C@@H]1C[C@H]2[C@@H]3CCC4=CC(=O)C=C[C@]4(C)[C@@]3(F)[C@@H](O)C[C@]2(C)[C@@]1(O)C(=O)CO", "note": "[DEX, 9-fluoro-11β,17,21-trihydroxy-16α-methylpregna-1,4-diene-3,20-dione, reference compound]", "values": [{"measurement": "aqueous solubility", "result": "around 90 mg/L"}]}]}
